The values that follow come from patent US20180011114A1.

For one assay, the target named is anti-FX-arm of ACE910. In words: ELISA, hybridoma culture supernatant. Background: In an ELISA, binding on a coated surface is turned into a signal by an enzyme label.
A further assay deals with anti-FIXa-arm of ACE910. As to the kind of experiment: ELISA, hybridoma culture supernatant.

Results are given in words; binding and its absence hold for the method and conditions named. Some binding calls cover weakened binding; strength is not graded here.

B1: AJ540 (antibody, V domains shown)
VH: QIQLVQSGPELKKPGESVKISCKASGYTFTDYAMHWVKQVPGKGLKWMGWINTYTGKPTYADDFKGRFVFSLEASASTANLQISNLKNEDTANVFCAREGGGYYWYFDFWGPGTMVTVSS
VL: DIVMTQSPTSMSISVGDRVTMNCKANQNVDFNVDWYQQKTGQSPKLLIYKASNRYTGVPDRFTGSGSGTDFTFTISNMQAEDLAVYYCMQSNSFPLTFGSGTNLEIK
As for B1, in the assay with anti-FX-arm of ACE910, the binding entry is given as “binds”.

B2: AQ8 (antibody, V domains shown)
VH: EVNLVESGGGLVQPGGSMSLSCAASGFTFTDYYMSWVRQPPGKALEWLALIRNKANGYTTEYSASVKGRFTISRDNSQSILYLQMNALRAEDSATYYCARDSYYSYDGYAMDYWGQGTSVTVSS
VL: DIQMTQSPASLAASVGETITITCQASENIYFSLAWYQQKQGKSPQLLIYNTDSLKDGVPSRFSGSGSGTQYSMKINSMQPEDTATYFCRQSYDFPWTFGGGTKLEIK
B2: the binding entry with anti-FIXa-arm of ACE910 is “binds”.
